Where no end group is shown, it is not given here.
Assay: peptide made by a vendor (Fmoc solid-phase peptide synthesis; FmocLeu-Wang resin)
Settings: whole synthesis, analytical RP-HPLC

For DVSTSQAVLPDDFPRYPVGKFFKFDTWRQSAGRL, the “final HPLC purity” value was over 99%.

From patent US20030166561A1 (priority 1999, published 2003)
